The assay is described as follows: qHTS Assay for Lipid Storage Modulators in Drosophila S3 Cells.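 As to cell number change: cells counted by Cell Tracker Red CMTPX staining in the red channel.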 Particulars: BODIPY lipid droplet fluorescence, 18-24 h; for cell number change: measured here: cell count max response, cells fed with added oleic acid. Put shortly: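 Drosophila S3 cells loaded with oleic acid (400 uM, as added) and compounds at several concentrations; lipid droplets imaged by 488-nm laser-scanning cytometry, 500–530 nm intensity and object ratio to cell channel. Percent activity normalized to 20 uM Triacsin C.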
For orientation: In qHTS, concentration-response curves come from the screen itself.

Where [1] appears, read: measured here: lipid fluorescence (Fed channel) AC50, cells fed with added oleic acid.
Where [2] appears, read: measured here: cell number channel AC50, cells fed with added oleic acid.

This is one part of the list. Further columns of the screen follow, without active or inactive calls. Compounds called inactive in the main read-out are mostly missing here. Words in brackets tell the shape of the fitted curve; partial curves, single points and poor fits give uncertain potencies.

Our source for the cell number change and AC50 values is PubChem BioAssay AID2685 (National Center for Advancing Translational Sciences (NCATS), 2010).

As for `CCOc1ccc2ccccc2c1C(=O)N[C@@H]1C(=O)N2[C@@H]1SC(C)(C)[C@@H]2C(=O)O`, the cell number change is -11.8%. Also, under setting [1], the AC50 is 6.51 µM [falling, single point].

Consider `COc1ccc(N2CCN(C(=S)NCc3ccc(C)cc3)CC2)cc1`, for which the cell number change is -14.1%.

On to `CC(=O)N1c2ccccc2C2(O)N=C(C)SC12` (centres undefined), for which the cell number change is 19.4%. Also, the AC50 under setting [1] is 2.59 µM [rising, full curve, poor fit].

Consider `COc1ccc(/C=C/C(=O)NC(=S)NNC(=O)c2cccnc2)cc1`, for which the cell number change is -13.9%.

As to `CCCC[C@@H]1C[C@H]1[C@@H](NC(=O)c1ccccc1)c1ccccc1C(F)(F)F`, the cell number change was 11.9%. Moreover, the AC50 under setting [1] was 7.31 µM [rising, partial curve].

For `COc1cccc(C2C(C(=O)c3sc(C)nc3C)=C(O)C(=O)N2CCN2CCOCC2)c1` (centres undefined), the cell number change was 3.98%. Further, under setting [1], the AC50 is 0.411 µM [falling, single point].

Turning to `CCc1ccc(C(=O)Cn2cnc3cc([N+](=O)[O-])ccc3c2=O)cc1`, the cell number change worked out at 20.8%. Under setting [1], the AC50 was 6.51 µM [rising, partial curve].

As for `COc1ccc(-c2csc(N3CCN(C(=O)c4ccco4)CC3)n2)cc1`, the cell number change came out at 26.6%. The AC50 under setting [1] was 6.51 µM [rising, single point].

For `CC(C)Cn1c(SCC(=O)Nc2ccc3[nH]c(=O)[nH]c3c2)nc2ccccc2c1=O`, the cell number change was 42.6%. Further, under setting [2], the AC50 was 2.59 µM [rising, full curve].

Take `O=C(Nc1ccc2c(c1)OCO2)C(=O)c1c[nH]c2ccccc12`: the cell number change is 72%. Moreover, the AC50 under setting [2] was 11.6 µM [rising, partial curve]. In addition, the AC50 under setting [1] is 1.64 µM [rising, partial curve, poor fit].

For the compound `COCCn1cc(C(=O)NCc2ccco2)c2c3ccccc3n(C)c2c1=O`, the cell number change came to 3.45%. For the same compound, the AC50 under setting [1] was 0.00517 µM [rising, full curve, poor fit].

`CC1=Nc2cccc3cccc(c23)N1`: the cell number change was 24.8%. The AC50 under setting [2] was 6.51 µM [rising, single point]. Besides, under setting [1], the AC50 was 3.66 µM [rising, partial curve, poor fit].

Regarding `Nc1nc(NCc2ccco2)nc(N2CCCCCC2)c1[N+](=O)[O-]`, the cell number change was -5.49%.

As to `Cc1cccc(NS(=O)(=O)c2cc(C(=O)N3CCOCC3)ccc2Cl)c1`, the AC50 under setting [2] is 0.731 µM [falling, full curve, poor fit] and the half-maximal activity concentration (AC50) under setting [1] is 0.58 µM [falling, single point].

With `O=C(Cc1cccs1)Nc1ccccn1`, the cell number change came out at 11.6%. For the same compound, under setting [1], the AC50 is 0.651 µM [rising, single point].

`COc1ccc(S(=O)(=O)N(C)c2ccc(C(=O)NCc3ccncc3)cc2)cc1`: the cell number change was -19.8%. In addition, under setting [2], the AC50 is 0.82 µM [rising, partial curve]. Besides, the AC50 under setting [1] was 6.51 µM [rising, single point].

For the compound `CCOC(=O)C1CCN(C(=O)Cn2nc(C)n3c(cc4cc(C)ccc43)c2=O)CC1`, the cell number change was -17%.

As for `CC1CCCC(C)N1C(=O)COc1ccc(C(=O)N/N=C/c2ccc(C(=O)O)cc2)cc1` (centres undefined), the cell number change is -66.4%.

`COc1cc(-c2c(C#N)c(N)nc3c2CCCC3)ccc1O`: the cell number change was 14.6%. Moreover, the half-maximal activity concentration (AC50) under setting [2] was 2.91 µM [rising, single point]. Also, the concentration at half-maximal activity (AC50) under setting [1] is 0.411 µM [rising, partial curve].

As to `Cn1c(SCC(=O)Nc2cccc(S(=O)(=O)NC3=NCCCCC3)c2)nnc1-c1ccccc1`, the cell number change amounted to 30.8%. In addition, the concentration at half-maximal activity (AC50) under setting [2] is 13 µM [rising, partial curve, poor fit]. Moreover, the AC50 under setting [1] was 2.06 µM [rising, partial curve, poor fit].

As for `CCc1nc2c(sc3nc4c(cc32)COC(C)(C)C4)c(=O)n1Cc1ccco1`, the cell number change was -14.1%. Further, the AC50 under setting [1] was 29.1 µM [falling, single point].

`CC[n+]1c(/C=C2\C=C(C)CC(C)(C)C2)sc2ccccc21`: the cell number change was 8.9%. In addition, the concentration at half-maximal activity (AC50) under setting [1] is 29.1 µM [rising, single point].

For `CC(C)C(NC(=O)c1ccc(F)cc1)C(=O)N1CCC1` (centres undefined), the cell number change came to 11.2%. For the same compound, the AC50 under setting [1] is 6.51 µM [falling, single point].

Regarding `O=C(c1ccccc1)c1cnc(-c2ccccc2)s1`, the cell number change came out at 7.73%. The AC50 under setting [2] is 0.411 µM [falling, partial curve, poor fit].

As for `CC1(C)Cn2c(nnc2-c2cccc(O)c2)S1`, the cell number change was 0.516%. For the same compound, the AC50 under setting [1] is 0.103 µM [falling, full curve, poor fit].

Regarding `CC1=C(C(=O)Nc2ccccc2C(=O)NC2CCCCC2)SCCO1`, the cell number change came to 7.78%.

As to `COc1ccc(NC(=O)CN(C)C(=O)c2n[nH]c3ccccc23)cc1`, the cell number change stood at 21.3%.

For `CCOc1cc(N2CCOCC2)c(OCC)cc1NC(=O)[C@H](C)N1C(=O)C2CC=CCC2C1=O` (some centres undefined), the cell number change is -17.5%. Besides, the AC50 under setting [1] was 0.116 µM [falling, full curve, poor fit].

Regarding `COc1ccc(N(CC(=O)N/N=C(\C)c2ccccc2)S(=O)(=O)c2ccccc2)cc1`, the AC50 under setting [1] was 3.26 µM [rising, partial curve].

For the compound `CC(=O)C1=C(O)C(=O)N(Cc2ccccc2)C1c1cccs1` (centres undefined), the cell number change was -69.4%. The AC50 under setting [2] is 23.1 µM [falling, single point]. In addition, the AC50 under setting [1] was 1.64 µM [falling, full curve].

Turning to `COc1cccc(NC(=O)CN2C(=O)NC3(CCCC3)C2=O)c1`, the cell number change turned out to be 17.3%. The AC50 under setting [1] is 0.82 µM [rising, full curve, poor fit].

For `CCC(C)Sc1cccc(-c2nc3ccc(Cl)cn3c2NCc2ccccc2)c1` (centres undefined), the cell number change was -0.33%. Also, the AC50 under setting [2] was 0.00411 µM [falling, full curve, poor fit]. Moreover, the AC50 under setting [1] is 0.0058 µM [falling, full curve, poor fit].

Regarding `COc1ccc(-c2c(-c3ccc(OCC(=O)NN)cc3O)n[nH]c2C)cc1`, the cell number change stood at 2.36%. Besides, under setting [2], the half-maximal activity concentration (AC50) is 0.146 µM [falling, full curve, poor fit].

As to `Cc1ccc(S(=O)(=O)N2CCN(C(=O)CSc3nnc(C)c(=O)[nH]3)CC2)cc1`, the cell number change came to 3.02%. Also, the AC50 under setting [1] is 0.651 µM [falling, full curve, poor fit].

As to `COc1ccc(-c2cc(-c3n[nH]c(=S)n3-c3ccccc3Cl)[nH]n2)cc1`, the cell number change stood at 62.5%. Besides, the AC50 under setting [2] was 29.1 µM [rising, single point]. The AC50 under setting [1] was 23.1 µM [rising, single point].

For `NNc1nc2ccccc2nc1C(F)(F)F`, the AC50 under setting [1] was 6.51 µM [falling, single point].

For `O=C(c1cc(C2CC2)nn1-c1ccccc1)N1CCN(c2ccccn2)CC1`, the AC50 under setting [2] is 6.51 µM [rising, single point].

As for `CC(=O)N/N=C(/C)c1ccc(NC(=O)c2csc(C)c2C)cc1`, the cell number change amounted to 8.98%.

In the case of `Cn1nnnc1SCCNCc1ccccc1OCc1ccc(Cl)cc1`, the cell number change was -81.6%. Besides, the AC50 under setting [2] was 4.61 µM [falling, single point]. Also, under setting [1], the AC50 is 0.164 µM [rising, full curve, poor fit].

In the case of `O=C(CNS(=O)(=O)c1ccc(Br)cc1)NCc1ccncc1`, the cell number change was -2.92%.

For `O=C(Cn1cnc2c(nnn2-c2ccccc2)c1=O)NCCc1ccccc1`, the AC50 under setting [1] was 0.13 µM [falling, full curve, poor fit].

Take `COc1cc(C(=O)OCC(=O)NC2CC2)ccc1OCCC(C)C`: the cell number change is -2.69%. The AC50 under setting [1] was 0.58 µM [rising, single point].

Take `Cc1ccc2[nH]cc(CCNC(=O)c3cccnc3)c2c1`: the cell number change was determined as 43.2%. Moreover, the concentration at half-maximal activity (AC50) under setting [2] was 1.03 µM [rising, full curve]. In addition, under setting [1], the AC50 was 3.26 µM [rising, partial curve].

As to `O=C(CN1CCN(c2ccccc2)CC1)Nc1ccc2c(c1)CCC2`, the cell number change was -22.1%. Besides, under setting [1], the AC50 is 14.6 µM [rising, single point].

Take `CCOCCCNS(=O)(=O)Cc1ccccc1`: the cell number change was -27.5%. Under setting [2], the concentration at half-maximal activity (AC50) was 2.31 µM [falling, full curve, poor fit]. Besides, the AC50 under setting [1] is 3.66 µM [falling, full curve].

As for `CCOc1ccccc1C(C(=O)NC1CCCCC1)N(C(=O)c1csnn1)C1CC1` (centres undefined), the cell number change was -7.14%.

As for `CCOC(=O)/C(=N/Nc1ccccc1)c1csc(Nc2ccccc2)n1`, the cell number change was -69.4%. Besides, the half-maximal activity concentration (AC50) under setting [2] was 29.1 µM [falling, single point]. In addition, under setting [1], the AC50 is 3.26 µM [rising, partial curve].

Take `COc1ccc(OC)c(Nc2cc(C)nc3ccccc23)c1`: the cell number change is -3.91%. Besides, the AC50 under setting [1] was 6.51 µM [falling, single point].

For `COC(=O)c1sccc1NC(=O)CC1C(=O)NCCN1C(=O)Nc1ccc(C(F)(F)F)cc1` (centres undefined), the cell number change stood at 4.52%. For the same compound, under setting [1], the AC50 is 0.103 µM [falling, full curve, poor fit].

Consider `CCCC(C(=O)Nc1ccc(S(=O)(=O)N2CCCC2)cc1)c1ccccc1` (centres undefined), for which the cell number change was -32.4%. In addition, under setting [2], the AC50 was 2.59 µM [falling, full curve, poor fit]. The AC50 under setting [1] is 29.1 µM [falling, partial curve, poor fit].

For the compound `Cc1nonc1NC(=O)CSc1nnc(-c2ccoc2C)n1CC(C)C`, the cell number change is -3.27%. In addition, under setting [1], the AC50 was 2.31 µM [rising, full curve, poor fit].

Consider `Cc1cn(-c2ccccc2)c(C)c1/C=N\Nc1nc(N2CCOCC2)nc(N2CCOCC2)n1`, for which the cell number change was -24.7%. Moreover, the AC50 under setting [1] was 1.3 µM [falling, full curve].

With `COc1ccc(OC)c2c1sc(=NC(=O)C1COc3ccccc3O1)n2C` (centres undefined), the cell number change amounted to 1.33%. Also, the AC50 under setting [1] was 0.651 µM [rising, full curve, poor fit].

As for `Cc1ccc2nc(SCC(=O)NCc3ccccc3)nc(=O)n2c1`, the cell number change is -18.2%.

As to `COc1ccccc1NC(=O)CC1S/C(=N/N=C(\C)C2CCCCC2)NC1=O` (centres undefined), the cell number change came to 1.62%. Under setting [1], the AC50 is 29.1 µM [falling, single point].

As to `Cc1cc(C(=O)Nc2ccc3ccccc3c2)c(C)o1`, the cell number change was 13.7%. The concentration at half-maximal activity (AC50) under setting [1] is 7.31 µM [falling, partial curve].

In the case of `COc1cccc(-c2csc3nc[nH]c(=O)c23)c1`, the AC50 under setting [1] was 1.84 µM [falling, partial curve].

As for `O=C(CSc1n[nH]c(-c2cccs2)n1)N1CCN(S(=O)(=O)c2ccc3ccccc3c2)CC1`, the AC50 under setting [2] was 0.00517 µM [falling, full curve, poor fit].

For the compound `CCCCCC(=O)N1CCN(S(=O)(=O)c2ccc3c(c2)OCCO3)CC1`, the AC50 was 2.31 µM [rising, single point] under setting [2] and 5.8 µM [falling, partial curve] under setting [1].

What is called AC50 is the concentration at which the activity in the assay is half-maximal.
